Reference: PubChem BioAssay AID1439 (NMMLSC, 2008)
The campaign covered roughly 220,000 compounds. About 770 (0.35%) were called active. This list was built around the results that the source calls inconclusive (neither active nor inactive); the mix of calls is not that of the screen. Cut-off read from the data, not from the text of the source: active = binding response below about 49% or above about 150%; inconclusive = no clear call, values can overlap the other calls; inactive = in between.

Amino acid sequences for entries named in this document (tags omitted).
UniProt P09471, whole entry, looked up: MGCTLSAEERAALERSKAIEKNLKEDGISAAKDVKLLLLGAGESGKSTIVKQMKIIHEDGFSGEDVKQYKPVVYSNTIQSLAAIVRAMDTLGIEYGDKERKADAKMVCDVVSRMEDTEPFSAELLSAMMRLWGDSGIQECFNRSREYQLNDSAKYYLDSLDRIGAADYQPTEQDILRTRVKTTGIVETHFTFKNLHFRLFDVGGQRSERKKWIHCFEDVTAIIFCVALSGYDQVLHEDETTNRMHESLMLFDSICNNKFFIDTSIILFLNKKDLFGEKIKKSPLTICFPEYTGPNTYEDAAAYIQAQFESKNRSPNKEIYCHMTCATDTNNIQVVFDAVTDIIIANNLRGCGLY

What follows are compounds tested against Guanine nucleotide-binding protein G(o) subunit alpha (Homo sapiens) (UniProt P09471) (assay: RGS7-Galphao binding modulators, primary screen, biochemical, multiplexed bead flow cytometry (AID 1439;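 note: fluorescent Galphao held in activated GDP-AlF4 state binding bead-coupled RGS7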)). Details: at 10 µM, actives lie on both sides.

| Structure (SMILES) | binding response (% of control) |
| --- | --- |
| O=C(O)c1ccc(-n2cccc2/C=N\NC(=O)c2cc3cc(Br)ccc3o2)cc1 | inconclusive: 76% |
| CSc1ccccc1NC(=O)C1C2CCC(C2)C1C(=O)O (stereo not given) | active: 33% |
| CCOc1ccc(Oc2nc(N(CC)CC)nc(N3CCOCC3)n2)nn1 | inconclusive: 96.7% |
| O=C(O)c1ccc(N/N=C/c2ccc(-c3cc(Cl)ccc3Cl)o2)cc1 | inconclusive: 68.9% |
| Cc1oc(C)c2c(=O)ccc3c(c12)OC(N)=C(C#N)C3c1ccccc1 (stereo not given) | inactive: 105% |
| O=C(/C=C/c1ccc([N+](=O)[O-])cc1)NNC(=O)C1CC1 | inconclusive: 82.2% |
| CN1CCc2c(sc(/N=C/c3c[nH]c4ccccc34)c2C#N)C1 | inconclusive: 90.1% |
| CCNc1nc(N)c(C(=C(C#N)C#N)c2ccccc2)s1 | inactive: 92% |
| Cc1nnc(SCC(=O)Nc2ccc3c(c2)OCO3)n(N)c1=O | inactive: 103% |
| COc1ccc(CCNC(=O)c2cc(C3CC3)on2)cc1OC | inconclusive: 34.6% |
| CCCC1=C(C(=O)OCC)C(c2ccco2)n2ncnc2N1 (stereo not given) | inconclusive: 129% |
| CC(C)c1ccc(/C=N/NC(=O)c2c(Cl)cnn2C)cc1 | inactive: 102% |
| Cc1cc(C)cc(OCC(=O)N/N=C/c2ccccn2)c1 | inconclusive: 107% |
| Cc1nc2sc(-c3ccccc3)cc2c(=O)n1N | inconclusive: 133% |
| Cc1cc(C(=O)OCC(=O)Nc2ccc(F)c(F)c2F)c(C)o1 | inconclusive: 90.3% |
| COc1ccc(C[C@@H]2CN3C(=NC[C@@H]3C)N2CCNC(=O)c2ccc(C)c(Br)c2)cc1 | inactive: 100% |
| COC(=O)c1cc(NC(=O)c2cc(C(C)(C)C)nn2Cc2cccc(C)c2)ccc1N1CCOCC1 | inconclusive: 84.1% |
| O=C(CCc1ccccc1)Nc1ccc(S(=O)(=O)N2CCOCC2)cc1 | inconclusive: 68.9% |
| C/C(O)=c1/ccc2cccc3nc(C)nc1c23 | inactive: 104% |
| CC(/C=C1\SC(=S)N(CC(=O)O)C1=O)=C\c1ccccc1 | inconclusive: 138% |
| O=C(NC(=O)c1ccccc1)OCCN1C(=O)c2ccccc2C1=O | inactive: 93.7% |
| C/C(=N\O)C(C)(C)Nc1cccc(F)c1 | inconclusive: 144% |
| Cc1[nH]n(-c2ccccc2)c(=O)c1C=Nc1ccc(S(=O)(=O)NC(N)=O)cc1 | inconclusive: 126% |

Compounds above that have fluorine (2):

| Structure (SMILES) | binding response (% of control) |
| --- | --- |
| Cc1cc(C(=O)OCC(=O)Nc2ccc(F)c(F)c2F)c(C)o1 | inconclusive: 90.3% |
| C/C(=N\O)C(C)(C)Nc1cccc(F)c1 | inconclusive: 144% |

The list continues.

| Structure (SMILES) | binding response (% of control) |
| --- | --- |
| CCOC(=O)c1sc(=NC(=O)c2ccc(Cl)s2)n(C)c1C | inconclusive: 85% |
| Nc1nc(NCC2CCCO2)nc(Nc2cccc(F)c2)c1[N+](=O)[O-] (stereo not given) | inconclusive: -104% |
| COc1cc(OC)c2ccc(=O)oc2c1C(CCN1CCCC(C)C1)c1ccc2c(c1)OCO2 (stereo not given) | inconclusive: 116% |
| CC1(C)CC(=O)C(C=NCCN2CCN(CC(=O)Nc3ccc(Cl)cc3)CC2)=C(O)C1 | inconclusive: 107% |
| CC(C)CC(=O)OC1C(N2CCOCC2)c2c(ccc(/C=C/C(=O)N3CCOCC3)c2O)OC1(C)C (stereo not given) | inactive: 91.7% |
| c1ccc(CNc2nc(NCc3ccccc3)c3ccccc3n2)cc1 | inconclusive: 142% |
| COC(=O)/C(=C\c1cc(OC)c(OC)c(OC)c1)c1nc2ccccc2[nH]1 | inconclusive: 90.4% |
| CCOC(=O)c1cc(NC(=O)c2ccccc2)c(=O)oc1C(F)(F)F | inconclusive: 87.5% |
| COc1ccc(C)cc1NC(=O)C(Sc1nnc(Nc2cc(C)ccc2OC)s1)c1ccccc1 (stereo not given) | active: 7.25% |
| NC(=O)COC(=O)c1c2c(nc3ccccc13)CCCC2 | inconclusive: 61.5% |
| Cc1cc(C)c2c(=O)c(C#N)coc2c1 | inconclusive: 108% |
| CCOc1cc(NS(=O)(=O)c2ccc(NC(C)=O)cc2)c(OCC)cc1NC(=O)c1cccs1 | inactive: 96.2% |
| O=C(CC1SC(=NCC2CCCO2)NC1=O)Nc1cccc2ccccc12 (stereo not given) | active: -5.75% |
| CCOc1ccc(OCC)c(NC(=O)CN2CCN(C(=O)c3ccco3)CC2)c1 | inactive: 89.2% |
| Cc1[nH]c2ccccc2c1C(O)CN1CCC2(CC1)OCCO2 (stereo not given) | inconclusive: 98.2% |
| COc1ccc(C(=O)Nc2cccc(/C=C/c3nc4ccccc4c(=O)[nH]3)c2)cc1 | inconclusive: 88.8% |
| CCCn1ncc(CN2CCCC(C(=O)c3cccc(OC(C)C)c3)C2)c1C (stereo not given) | inconclusive: 83.3% |
| O=C(Nc1cccc(C(F)(F)F)c1)c1csc(-c2ccncc2)n1 | inconclusive: 98.8% |
| COc1ccc(C(C(N)=O)c2ncc(C(F)(F)F)cc2Cl)cc1 (stereo not given) | inconclusive: 108% |
| COc1cccc(-c2cc(-c3cccnc3)c(C#N)c(N)n2)c1 | inconclusive: 107% |
| O=C(Cn1nc(-c2ccccc2)c2ccccc2c1=O)Nc1ccc(O)cc1 | inconclusive: 98.9% |
| Cc1ccc(N(C)S(=O)(=O)c2cccc(C(=O)NC3=NCCS3)c2)cc1 | inactive: 99.3% |
| CCOC(=O)C1CCN(C(=O)c2cccc(NS(=O)(=O)c3ccc(F)c(F)c3)c2)CC1 | inconclusive: 96.4% |

| Structure (SMILES) | binding response (% of control) |
| --- | --- |
| Fc1ccccc1-c1nc(NCc2ccccc2)c2ccccc2n1 | inconclusive: 83.2% |
| Cc1cc(=O)[nH]c(-c2ccc(C(F)(F)F)cc2)n1 | inconclusive: 117% |
| C[N+](C)(C)C(Cc1ccccc1)C(=O)[O-] (stereo not given) | inconclusive: 119% |
| c1cnc2ccc3ncccc3c2c1 | inconclusive: 111% |
| COc1ccc(-c2ccc(OC)c([C@H]3[C@H]4C=CC[C@@H](C)[C@@H]4C(=O)N3Cc3ccccc3)c2)cc1C | inconclusive: 112% |
| O=C(Cc1ccccc1)N/N=C/c1cccs1 | inactive: 106% |
| Cc1ccc(NC(c2ccccc2)c2nc3ccccc3[nH]c2=O)cc1 (stereo not given) | inconclusive: 118% |
| CSc1nnc(-c2cc(C)on2)n1-c1ccccc1 | inactive: 92.6% |
| CS(=O)(=O)N1CCN(c2ccccc2F)CC1 | inactive: 93.3% |
| O=C(CN1C(=O)COc2ccc(S(=O)(=O)N3CCCC3)cc21)N1CCCC1 | inconclusive: 68.7% |
| Cc1ccc(N=C2NC(=O)/C(=C/c3cccnc3)S2)c(C)c1 | inconclusive: 97.3% |
| O=[N+]([O-])c1ccc(Oc2cccc(C(F)(F)F)c2)nc1 | inconclusive: 122% |
| CCOc1ccc(N(Cc2cc3ccc(C)cc3[nH]c2=O)C(=O)COC)cc1 | inactive: 103% |
| O=C(NCCc1ccccc1)c1ccccc1NC(=O)C1CCCCC1C(=O)O (stereo not given) | inactive: 88.5% |
| O=C(NCC1CCCO1)C(=O)N/N=C/c1cc(Cl)ccc1O (stereo not given) | inconclusive: 622% |
| CN(C)c1ccc(P(=O)(OCc2ccccc2)C(O)c2ccc(Br)cc2)cc1 (stereo not given) | inconclusive: 105% |
| CSc1ccc(CN2CCC(C(=O)NCc3ccc(C)cc3)CC2)cc1 | inactive: 98.7% |
| COc1ccc(NC(=O)c2ccc(NC(=O)CSc3nccc(=O)[nH]3)cc2)cc1 | inconclusive: 97.3% |
| CC(C)OCCCNC(=S)N1CCC(C(=O)c2ccc3c(c2)OCCO3)CC1 | inactive: 105% |
| COc1ccc(CN2C=C3C(=O)C(C)(OC(=O)C4CCCC4)C(=O)C=C3C=C2c2ccsc2)cc1 (stereo not given) | inconclusive: 98.4% |
| CN1CCN(C2=C(NS(=O)(=O)c3cccs3)C(=O)c3ccccc3C2=O)CC1 | inconclusive: 57.8% |
| Cc1ccc2nc(SCC(=O)NCc3cccs3)[nH]c2c1 | inconclusive: 111% |
| C#CCOC(=O)Nc1cc(C)n(-c2ccccc2)n1 | inconclusive: 108% |

| Structure (SMILES) | binding response (% of control) |
| --- | --- |
| O=C(Cc1ccccc1)NNc1c2ccccc2nc2ccccc12 | inconclusive: 104% |
| CN(C)C(CNC(=O)c1cccc(C#N)c1)c1ccco1 (stereo not given) | inconclusive: 94.3% |
| COc1ccc(NC(=O)CSc2nnc3ccc(-c4ccncc4)nn23)cc1OC | inconclusive: 97.3% |
| CCN(CC)S(=O)(=O)c1ccc(OC)c(NC(=O)c2ccc(=O)[nH]c2)c1 | inconclusive: 74.7% |
| COc1ccc2c(c1OC)C(=O)N1N=C(c3ccc(-c4ccccc4)cc3)CC21 (stereo not given) | inconclusive: 77.2% |
| CCCCOCP(=O)(CCCC)COCCCC | active: 24.6% |
| CN(C)c1c(N)[nH]c2c(c1=O)c(=O)n(C)c(=O)n2C | inactive: 103% |
| CCO[C@H]1OC(C(=O)N2CCN(C)CC2)=C[C@@H](c2ccc(Br)cc2)[C@@H]1CCCO | inactive: 101% |
| COCCNC(=O)CSc1nc2sc(C)c(C)c2c(=O)n1-c1ccccc1 | inconclusive: 101% |
| CCCn1c2c(c(=N)c3c1CCC3)CCC2 | inconclusive: 110% |
| CC(C)(C)c1ccc(OCCC(=O)Nc2cccc(S(=O)(=O)N3CCCCC3)c2)cc1 | inactive: 101% |
| CCCn1c(N2CCOCC2)nc2c1c(=O)[nH]c(=O)n2C | inactive: 119% |
| Cn1c(-c2ccccc2[N+](=O)[O-])[n+](C)c2ccccc21 | inconclusive: 80.7% |
| N/C(=N\OC(=O)c1cccs1)c1cccc(Br)c1 | inconclusive: 100% |
| Cc1ccc(NC(=O)/C(=C\c2cccnc2)NC(=O)c2ccco2)cc1 | inactive: 101% |
| O=S1(=O)[C@H]2C[C@@H]3C=C[C@]2(CN1Cc1ccc(C(F)(F)F)cc1)O3 | inconclusive: 98.7% |
| CCO[C@@H]1OC(C(N)=O)=C[C@H](C2CCCCC2)[C@H]1CCCO | inconclusive: 95.7% |
| Cc1c(-c2cccc(Cl)c2)nc2ccccc2c1C(=O)OCC(=O)N(C)C1CCS(=O)(=O)C1 (stereo not given) | inactive: 97% |
| O=C(Nc1ccc2c(c1)OCCO2)c1ccc2ccccc2n1 | inactive: 81.9% |
| CCN(CC)CCCNC(=O)C1c2cc(OC)c(OC)cc2C(=O)N(C)C1c1cccs1 (stereo not given) | inactive: 130% |
| CCOc1cnc(-c2ccccc2F)o1 | inconclusive: 94.9% |

Four structures already listed, arranged by length of the SMILES, largest number first.

| Structure (SMILES) | binding response (% of control) |
| --- | --- |
| CCOC(=O)C1CCN(C(=O)c2cccc(NS(=O)(=O)c3ccc(F)c(F)c3)c2)CC1 | inconclusive: 96.4% |
| O=C(NCCc1ccccc1)c1ccccc1NC(=O)C1CCCCC1C(=O)O (stereo not given) | inactive: 88.5% |
| Cc1ccc2nc(SCC(=O)NCc3cccs3)[nH]c2c1 | inconclusive: 111% |
| N/C(=N\OC(=O)c1cccs1)c1cccc(Br)c1 | inconclusive: 100% |
